Results taken from US9334246B2, “Substituted triazines for malaria treatment and chemoprophylaxis” (The United States of America, as represented by the …, priority 2013, dated 2016).
At least one structure is not confirmed: it was looked up by name or label, or the drawing left a doubt.

Assays:
Format in all cases: cell-based, Plasmodium falciparum
P. falciparum D6 = experiment: Malaria SYBR Green Fluorescence Assay, D6 strain; conditions: for D6: SYBR Green Assay
P. falciparum W2 = experiment: Malaria SYBR Green Fluorescence Assay, W2 strain; conditions: for W2: SYBR Green Assay
P. falciparum C235 = experiment: Malaria SYBR Green Fluorescence Assay, C235 strain; conditions: for C235: SYBR Green Assay

| SMILES | D6 (P. falciparum D6) [ng/mL] | W2 (P. falciparum W2) [ng/mL] | C235 (P. falciparum C235) [ng/mL] | other results |
| --- | --- | --- | --- | --- |
| CC(C)(C)OC(=O)N1CC2CC1CN2c1nc(-c2cccc(C(F)(F)F)c2)nc(C(Cl)(Cl)Cl)n1 (stereo not drawn) [Compound 707, CC(C)(C)OC(═O)N1CC2CC1CN2c3nc(nc(n3)C(Cl)(Cl)Cl)c4cccc(c4)C(F)(F)F] | ≥ 1000 | ≥ 1000 | ≥ 1000 |  |
| COc1ccccc1Cc1nc(N2CCCN(C)CC2)nc(C(Cl)(Cl)Cl)n1 [Cmpd 289] |  |  | ≥ 1000 |  |
| ClC(Cl)(Cl)c1nc(NCc2cccnc2)nc(-c2ccc(-c3ccccc3)cc2)n1 [Cmpd 249] | ≥ 1000 |  |  |  |
| C[S+]([O-])c1ccc(-c2nc(NCCCN3CCCC3)nc(C(Cl)(Cl)Cl)n2)cc1 (stereo not drawn) [Cmpd 616] |  |  |  | D6 (SYBR Green Assay IC50) (P. falciparum D6): ≥ 1000 ng/mL; W2 (SYBR Green Assay IC50) (P. falciparum W2): ≥ 1000 ng/mL; C235 (SYBR Green Assay IC50) (P. falciparum C235): ≥ 1000 ng/mL |
| ClC(Cl)(Cl)c1nc(NCCc2ccccn2)nc(-c2ccc(-c3ccccc3)cc2)n1 [Cmpd 253] | ≥ 1000 | ≥ 1000 | ≥ 1000 |  |
| NC1(CNc2nc(-c3ccccc3)nc(C(Cl)(Cl)Cl)n2)CC1 [Compound 677, NC1(CNC2═NC(═NC(═N2)C2═CC═CC═C2)C(Cl)(Cl)Cl)CC1] | ≥ 1000 |  |  |  |
| CSc1ccc(-c2nc(NCCc3cnccn3)nc(C(Cl)(Cl)Cl)n2)cc1 [Cmpd 543] |  |  |  | D6 (SYBR Green Assay IC50) (P. falciparum D6): ≥ 1000 ng/mL; C235 (SYBR Green Assay IC50) (P. falciparum C235): ≥ 1000 ng/mL |
| CN1CCCC1CCNc1nc(-c2ccc(S(C)(=O)=O)cc2)nc(C(Cl)(Cl)Cl)n1 (stereo not drawn) [Cmpd 75] |  | ≥ 1000 | ≥ 1000 |  |
| COc1cccc(Cc2nc(NCCC3CCCN3C)nc(C(Cl)(Cl)Cl)n2)c1 (stereo not drawn) [Cmpd 84] | ≥ 1000 | ≥ 1000 | ≥ 1000 |  |
| CN1CCCN(c2nc(-c3ccc(N4CCCC4)cc3)nc(C(Cl)(Cl)Cl)n2)CC1 [Cmpd 371] |  |  |  | D6 (SYBR Green Assay IC50) (P. falciparum D6): ≥ 1000 ng/mL; W2 (SYBR Green Assay IC50) (P. falciparum W2): ≥ 1000 ng/mL; C235 (SYBR Green Assay IC50) (P. falciparum C235): ≥ 1000 ng/mL |
| CS(=O)(=O)c1ccc(-c2nc(NCCc3ccccn3)nc(C(Cl)(Cl)Cl)n2)cc1 [Cmpd 180] |  |  | ≥ 1000 |  |
| Cc1ccc(-c2ccccc2-c2nc(N3CCCNCC3)nc(C(Cl)(Cl)Cl)n2)cc1 [Cmpd 263] | ≥ 1000 |  |  |  |
| COc1ccccc1-c1nc(NCc2ccncc2)nc(C(Cl)(Cl)Cl)n1 [Cmpd 135] |  |  | ≥ 1000 |  |
| COc1ccc(-c2nc(NCC3(N)CCCCC3)nc(C(Cl)(Cl)Cl)n2)c2ccccc12 [Compound 668, COC1═C2C═CC═CC2═C(C═C1)C1═NC(NCC2(N)CCCCC2)═NC(═N1)C(Cl)(Cl)Cl] | ≥ 1000 | ≥ 1000 | ≥ 1000 |  |
| CN1CCCN(c2nc(-c3ccc(S(C)(=O)=O)cc3)nc(C(Cl)(Cl)Cl)n2)CC1 [Cmpd 76] | ≥ 1000 | ≥ 1000 | ≥ 1000 |  |
| ClC(Cl)(Cl)c1nc(NCc2ccccn2)nc(-c2ccc(-c3ccccc3)cc2)n1 [Cmpd 250] | ≥ 1000 |  |  |  |
| ClC(Cl)(Cl)c1nc(NCCc2cccnc2)nc(-c2ccc(-c3ccccc3)cc2)n1 [Cmpd 252] | ≥ 1000 | ≥ 1000 | ≥ 1000 |  |
| CN(C)CCCNc1nc(-c2ccc(C(C)(C)C)cc2)nc(C(Cl)(Cl)Cl)n1 [Cmpd 440] |  |  |  | D6 (SYBR Green Assay IC50) (P. falciparum D6): ≥ 1000 ng/mL; W2 (SYBR Green Assay IC50) (P. falciparum W2): ≥ 1000 ng/mL; C235 (SYBR Green Assay IC50) (P. falciparum C235): ≥ 1000 ng/mL |
| ClC(Cl)(Cl)c1nc(NCCc2ccncc2)nc(-c2ccc(-c3ccccc3)cc2)n1 [Cmpd 251] | ≥ 1000 | ≥ 1000 | ≥ 1000 |  |
| NC1(CNc2nc(-c3ccc4ccccc4c3)nc(C(Cl)(Cl)Cl)n2)CCCCC1 [Compound 667, NC1(CNC2═NC(═NC(═N2)C2═CC3═C(C═CC═C3)C═C2)C(Cl)(Cl)Cl)CCCCC1] | ≥ 1000 | ≥ 1000 | ≥ 1000 |  |
| CN1CCCC1CCNc1nc(-c2ccc(-c3ccccc3)cc2)nc(C(Cl)(Cl)Cl)n1 (stereo not drawn) [Cmpd 201] | ≥ 1000 |  | ≥ 1000 |  |
| CCN1CCC(CNc2nc(Nc3cccnc3OC)nc(C(Cl)(Cl)Cl)n2)CC1 [Cmpd 352] |  |  |  | C235 (SYBR Green Assay IC50) (P. falciparum C235): ≥ 1000 ng/mL |
| OCCN1CCCN(c2nc(-c3ccc(N4CCCC4)cc3)nc(C(Cl)(Cl)Cl)n2)CC1 [Cmpd 465] |  |  |  | D6 (SYBR Green Assay IC50) (P. falciparum D6): ≥ 1000 ng/mL |
| COc1ccc(-c2nc(NCC3(N)CCCC3)nc(C(Cl)(Cl)Cl)n2)c2ccccc12 [Compound 673, COC1═C2C═CC═CC2═C(C═C1)C1═NC(NCC2(N)CCCC2)═NC(═N1)C(Cl)(Cl)Cl] | ≥ 1000 | ≥ 1000 | ≥ 1000 |  |
| COc1cccc(-c2nc(N3CCN(C)CC3)nc(C(Cl)(Cl)Cl)n2)c1 [Cmpd 43] | ≥ 1000 | ≥ 1000 | ≥ 1000 |  |
| COc1ccccc1-c1nc(NCCc2cccnc2)nc(C(Cl)(Cl)Cl)n1 [Cmpd 182] |  |  | ≥ 1000 |  |

| SMILES | D6 (P. falciparum D6) [ng/mL] | W2 (P. falciparum W2) [ng/mL] | C235 (P. falciparum C235) [ng/mL] | other results |
| --- | --- | --- | --- | --- |
| COc1ccccc1Nc1nc(NCCCN2CCCC2)nc(C(Cl)(Cl)Cl)n1 [Cmpd 67] | ≥ 1000 | ≥ 1000 | ≥ 1000 |  |
| CC(C)(C)c1ccc(-c2nc(N3CCN(CCO)CC3)nc(C(Cl)(Cl)Cl)n2)cc1 [Cmpd 276] | ≥ 1000 | ≥ 1000 | ≥ 1000 |  |
| CC(C)CN1CCC(Nc2nc(-c3ccc(C(Cl)(Cl)Cl)cc3)nc(C(Cl)(Cl)Cl)n2)CC1 [Compound 697, CC(C)CN1CCC(CC1)NC1═NC(═NC(═N1)C1═CC═C(C═C1)C(Cl)(Cl)Cl)C(Cl)(Cl)Cl] | ≥ 1000 | ≥ 1000 | ≥ 1000 |  |
| CSc1ccc(-c2nc(NCCCN(C)C)nc(C(Cl)(Cl)Cl)n2)cc1 [Cmpd 441] |  |  |  | D6 (SYBR Green Assay IC50) (P. falciparum D6): ≥ 1000 ng/mL; W2 (SYBR Green Assay IC50) (P. falciparum W2): ≥ 1000 ng/mL; C235 (SYBR Green Assay IC50) (P. falciparum C235): ≥ 1000 ng/mL |
| Cc1ccc(-c2nc(NCc3ccncc3)nc(C(Cl)(Cl)Cl)n2)cc1 [Cmpd 134] |  |  | ≥ 1000 |  |
| CSc1ccc(-c2nc(N3CCCN(C)CC3)nc(C(Cl)(Cl)Cl)n2)cc1 [Cmpd 261] | ≥ 1000 | ≥ 1000 | ≥ 1000 |  |
| CC(C)(C)c1ccc(-c2nc(N3CCOCC3)nc(C(Cl)(Cl)Cl)n2)cc1 [Compound 734, CC(C)(C)c1ccc(cc1)c2nc(nc(n2)C(Cl)(Cl)C1)N3CCOCC3] | ≥ 1000 |  | ≥ 1000 |  |
| CN1CCCC1CCNc1nc(-c2ccc(N3CCCC3)cc2)nc(C(Cl)(Cl)Cl)n1 (stereo not drawn) [Cmpd 370] |  |  |  | W2 (SYBR Green Assay IC50) (P. falciparum W2): ≥ 1000 ng/mL; C235 (SYBR Green Assay IC50) (P. falciparum C235): ≥ 1000 ng/mL |
| Cc1ccc(-c2nc(N3CCN(CCO)CC3)nc(C(Cl)(Cl)Cl)n2)cc1 [Cmpd 416] |  |  |  | D6 (SYBR Green Assay IC50) (P. falciparum D6): ≥ 1000 ng/mL; C235 (SYBR Green Assay IC50) (P. falciparum C235): ≥ 1000 ng/mL |
| CC(C)(C)OC(=O)N1CC2CC1CN2c1nc(-c2ccc(Cl)c(Cl)c2)nc(C(Cl)(Cl)Cl)n1 (stereo not drawn) [Compound 705, CC(C)(C)OC(═O)N1CC2CC1CN2c3nc(nc(n3)C(Cl)(Cl)Cl)c4ccc(Cl)c(Cl)c4] | ≥ 1000 |  | ≥ 1000 |  |
| Clc1cc(Cl)cc(-c2nc(NCCc3cnccn3)nc(C(Cl)(Cl)Cl)n2)c1 [Cmpd 471] |  |  |  | D6 (SYBR Green Assay IC50) (P. falciparum D6): ≥ 1000 ng/mL; C235 (SYBR Green Assay IC50) (P. falciparum C235): ≥ 1000 ng/mL |
| COc1ccc(-c2nc(NCc3cccnc3)nc(C(Cl)(Cl)Cl)n2)cc1 [Cmpd 156] | ≥ 1000 |  | ≥ 1000 |  |
| Cc1ccc(-c2nc(N3CC4CC3CN4C(=O)OC(C)(C)C)nc(C(Cl)(Cl)Cl)n2)cc1 (stereo not drawn) [Compound 711, Cc1ccc(cc1)c2nc(nc(n2)C(Cl)(Cl)Cl)N3CC4CC3CN4C(═O)OC(C)(C)C] |  | ≥ 1000 | ≥ 1000 |  |
| COc1ccc(-c2nc(NCCc3cnccn3)nc(C(Cl)(Cl)Cl)n2)c2ccccc12 [Cmpd 546] |  |  |  | D6 (SYBR Green Assay IC50) (P. falciparum D6): ≥ 1000 ng/mL |
| COc1cccc(Cc2nc(NCCN3CCCC3)nc(C(Cl)(Cl)Cl)n2)c1 [Cmpd 82] | ≥ 1000 |  | ≥ 1000 |  |
| CS(=O)(=O)c1ccc(-c2nc(NCc3ccncc3)nc(C(Cl)(Cl)Cl)n2)cc1 [Compound 650, CS(═O)(═O)c1ccc(cc1)c2nc(NCc3ccncc3)nc(n2)C(Cl)(Cl)Cl] |  |  |  | D6 (SYBR Green Assay IC50) (P. falciparum D6): ≥ 1000 ng/mL; C235 (SYBR Green Assay IC50) (P. falciparum C235): ≥ 1000 ng/mL |
| COc1ncccc1Nc1nc(-c2ccc(S(C)(=O)=O)cc2)nc(C(Cl)(Cl)Cl)n1 [Compound 651, COc1ncccc1Nc2nc(nc(n2)C(Cl)(Cl)Cl)c3ccc(cc3)S(═O)(═O)C] |  |  |  | C235 (SYBR Green Assay IC50) (P. falciparum C235): ≥ 1000 ng/mL |
| Clc1ccc(-c2nc(NCCc3cnccn3)nc(C(Cl)(Cl)Cl)n2)cc1Cl [Cmpd 470] |  |  |  | D6 (SYBR Green Assay IC50) (P. falciparum D6): ≥ 1000 ng/mL |
| COc1ccccc1-c1nc(NCc2cccnc2)nc(C(Cl)(Cl)Cl)n1 [Cmpd 154] | ≥ 1000 |  | ≥ 1000 |  |
| COc1ccc(-c2nc(N3CCCN(C)CC3)nc(C(Cl)(Cl)Cl)n2)cc1OC [Cmpd 398] |  |  |  | D6 (SYBR Green Assay IC50) (P. falciparum D6): ≥ 1000 ng/mL; C235 (SYBR Green Assay IC50) (P. falciparum C235): ≥ 1000 ng/mL |
| COc1ccc(-c2nc(NC3CCN(C)CC3)nc(C(Cl)(Cl)Cl)n2)cc1OC [Cmpd 399] |  |  |  | D6 (SYBR Green Assay IC50) (P. falciparum D6): ≥ 1000 ng/mL; C235 (SYBR Green Assay IC50) (P. falciparum C235): ≥ 1000 ng/mL |
| CC(C)(C)c1ccc(-c2nc(NCc3ccccn3)nc(C(Cl)(Cl)Cl)n2)cc1 [Cmpd 170] | ≥ 1000 |  | ≥ 1000 |  |
| NC1(CNc2nc(-c3cccc(C(F)(F)F)c3)nc(C(Cl)(Cl)Cl)n2)CCCCC1 [Compound 663, NC1(CNC2═NC(═NC(═N2)C2═CC(═CC═C2)C(F)(F)F)C(Cl)(Cl)Cl)CCCCC1] |  |  | ≥ 1000 |  |
| COc1ccc(-c2nc(NC3CCN(C)CC3)nc(C(Cl)(Cl)Cl)n2)cc1 [Cmpd 275] | ≥ 1000 |  |  |  |
| CN(C)C1CCC(Nc2nc(-c3ccc(C(Cl)(Cl)Cl)cc3)nc(C(Cl)(Cl)Cl)n2)CC1 (stereo not drawn) [Cmpd 597] |  |  |  | D6 (SYBR Green Assay IC50) (P. falciparum D6): ≥ 1000 ng/mL; C235 (SYBR Green Assay IC50) (P. falciparum C235): ≥ 1000 ng/mL |
| NC1(CNc2nc(-c3ccc(C(Cl)(Cl)Cl)cc3)nc(C(Cl)(Cl)Cl)n2)CC1 [Compound 679, NC1(CNC2═NC(═NC(═N2)C2═CC═C(C═C2)C(Cl)(Cl)Cl)C(Cl)(Cl)Cl)CC1] |  |  | ≥ 1000 |  |
